Assay results as given in PubChem BioAssay AID2685 (National Center for Advancing Translational Sciences (NCATS), 2010).
Some of the results follow. These are further read-outs of the screen, such as a control signal, another cell line or another target. No call is given for them. Most of these compounds were active or inconclusive in the main read-out, so they are no random draw. The note in brackets gives the kind of curve behind each potency; many fits are weak.

Test: qHTS Assay for Lipid Storage Modulators in Drosophila S3 Cells;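 for cell number change: cells counted by Cell Tracker Red CMTPX staining in the red channel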
Settings: BODIPY lipid droplet fluorescence, 18-24 h; for cell number change: measured here: cell count max response, cells fed with added oleic acid
Summary of the method: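 Drosophila S3 cells got compounds at several concentrations plus oleic acid (400 uM solution). Laser-scanning cytometry with 488 nm excitation read lipid droplets at 500-530 nm and cells at 575-640 nm. Percent activity was relative to 20 uM Triacsin C.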

[1] = measured here: cell number channel AC50, cells fed with added oleic acid
[2] = measured here: lipid fluorescence (Fed channel) AC50, cells fed with added oleic acid

Row | Structure (SMILES) | cell number change [%] | AC50 [1] | AC50 [2]
1 | CCC(Sc1nc2sc(C(=O)OC)c(C)c2c(=O)n1N)C(=O)N(CC)CC (centres undefined) | 44.4 | 29.1 µM [rising, single point] | –
2 | COc1ccc(C(=O)NCCc2cc3c(OC)ccc(OC)c3[nH]c2=O)cc1OC | -9.58 | – | 0.058 µM [falling, full curve, poor fit]
3 | COc1ccc(N2CC(C(=O)Nc3nc4ccccc4s3)CC2=O)cc1 (centres undefined) | 19.7 | – | 29.1 µM [rising, single point]
4 | Nn1c(SCc2ccccc2F)nnc1-c1cccnc1 | 17.9 | – | 32.6 µM [rising, single point]
5 | CN(C(=O)c1cnc(N2CCN(c3ncccn3)CC2)c2ccccc12)c1ccc(Cl)cc1 | 1.04 | – | 0.0651 µM [falling, full curve, poor fit]
6 | COc1ccc(N(CC(=O)NC(C)C)S(=O)(=O)c2ccc(NC(C)=O)cc2)cc1 | 58.3 | 18.4 µM [rising, single point] | –
7 | COc1ccc(/C=C/C(=O)Nc2cc(S(=O)(=O)N3CCCCC3)ccc2N2CCCCC2)cc1OC | 79.1 | 29.1 µM [rising, single point] | 3.66 µM [falling, partial curve]
8 | CCOC(=O)N1CCN(C(=O)CS(=O)Cc2nc(-c3ccc(C)cc3)oc2C)CC1 (centres undefined) | 10.6 | 2.59 µM [rising, partial curve] | 6.51 µM [rising, single point]
9 | COC(=O)CN1C(=S)N(c2ccc(OC)cc2)C(=O)/C1=C/c1cccs1 | -33.5 | 11.6 µM [falling, partial curve] | 2.31 µM [falling, full curve]
10 | O=C(COC(=O)c1ccccc1C(=O)c1ccc(Cl)cc1)NCCc1ccccc1 | -21.8 | – | 20.6 µM [falling, single point]
11 | CCC(=O)N1CCc2cc(S(=O)(=O)NC(Cc3ccccc3)C(=O)O)ccc21 (centres undefined) | 16.5 | 0.082 µM [rising, full curve] | –
12 | CC(=O)Oc1cccc(C2C3=C(CC(C)(C)CC3=O)Nc3ccccc3N2C(C)=O)c1 (centres undefined) | 8.03 | – | 29.1 µM [rising, single point]
13 | O=C(C1CCCN(C2CC(=O)N(c3ccc(Cl)cc3)C2=O)C1)N1CCCC1 (centres undefined) | 0.867 | – | 0.0651 µM [rising, partial curve]
14 | Cn1nc(C(=O)NCCCN2CCCCC2)c2c1-c1ccccc1SC2 | 16.4 | – | 29.1 µM [rising, single point]
15 | Nc1cc(=O)[nH]c(SCC(=O)N2CCCCC2)n1 | 3.72 | – | 25.9 µM [rising, single point]
16 | CCOc1ccc(CN(C)C(=O)c2ccc3c(c2)NC(=O)C(C)S3)cc1OC (centres undefined) | -11.8 | – | 9.2 µM [falling, single point]
17 | O=C1C2C3c4ccccc4C(c4ccccc43)[C@@H]2c2nc3ccccc3n21 (some centres undefined) | 149 | 6.51 µM [falling, single point] | 4.61 µM [falling, single point]
18 | O=c1c2c3c(sc2ncn1/N=C/c1cccnc1)CCCC3 | 102 | 25.9 µM [rising, partial curve] | –
19 | COC(=O)c1sccc1NC(=O)Nc1ccc(F)cc1F | -18.8 | – | 0.58 µM [rising, single point]
20 | COc1cc(N/C=C2\CC(=O)NC(C)=C2C#N)cc(OC)c1OC | 7.69 | – | –

Row | Structure (SMILES) | cell number change [%] | AC50 [1] | AC50 [2]
21 | CCC(c1nnnn1Cc1ccc(OC)cc1)N(CCCO)Cc1cc2cc3c(cc2[nH]c1=O)OCO3 (centres undefined) | 41.9 | 5.8 µM [rising, full curve, poor fit] | 5.8 µM [rising, partial curve, poor fit]
22 | COc1ccccc1CNC(=O)c1sccc1C | -18.1 | – | 6.51 µM [rising, partial curve, poor fit]
23 | COc1ccccc1NC(=O)NC1(C(=O)NCC2CCCO2)CCCCC1 (centres undefined) | 22.7 | – | –
24 | CCCn1c(SCC(=O)Nc2nc(-c3ccc(OC)cc3)cs2)nc2c1c(=O)n(C)c(=O)n2C | 0.3 | – | 1.3 µM [rising, partial curve, poor fit]
25 | O=C(COC(=O)C1(c2ccc(F)cc2)CCCC1)Nc1ncc(C(F)(F)F)cc1Cl | -5.48 | – | 20.6 µM [falling, single point]
26 | COc1ccc(Nc2nc(N)nc(CSc3nnc(N)s3)n2)cc1 | 8.61 | – | 0.58 µM [falling, single point]
27 | COC(=O)c1ccc(/C=C/c2c(-c3ccc(OC)cc3)oc3ccc(N4CCOCC4)cc23)cc1 | -53.1 | 16.4 µM [falling, partial curve] | –
28 | CCC(=O)c1ccc(OC(=O)Cc2ccc(OC)cc2)cc1 | 16.7 | – | 29.1 µM [rising, single point]
29 | Cc1oc2cc3oc(=O)c(CCC(=O)NC4CC4)c(C)c3cc2c1C | -12.6 | – | –
30 | COCCNC(=O)c1ccc(N2CC3CC(C2)c2cccc(=O)n2C3)c(NC(=O)c2ccc(Br)o2)c1 (centres undefined) | – | – | 1.46 µM [falling, full curve, poor fit]
31 | O=C(c1ccccc1)N1N=C(c2ccc(F)cc2)CC1(O)C(F)(F)F (centres undefined) | -31.1 | 32.6 µM [falling, single point] | –
32 | O=C(c1ccc(N2CCN(C(=O)c3cccc(F)c3)CC2)cc1)c1cccc(F)c1 | 18.4 | – | 1.64 µM [rising, partial curve]
33 | CCc1ccc(NC(=O)CCc2c(C)nn(-c3ccc(N4CCOCC4)nn3)c2C)cc1 | – | – | 29.1 µM [falling, single point]
34 | CCCCn1c(N)c(N(C)C(=O)c2ccccc2Oc2ccccc2)c(=O)[nH]c1=O | 0.71 | – | 0.00731 µM [rising, full curve, poor fit]
35 | COc1ccccc1NC(=O)CN(Cc1ccco1)C(=O)c1cncc(Br)c1 | 24.9 | – | 4.61 µM [rising, full curve]
36 | COc1ccc(C(=O)C(=O)c2ccc(OCCO)cc2)cc1 | -20.9 | – | 0.82 µM [rising, single point]
37 | COc1ccc(CNC(=O)c2ccccc2C(=O)O)cc1 | -33.9 | 32.6 µM [falling, single point] | 25.9 µM [falling, partial curve, poor fit]
38 | O=C1OC(Nc2ccc(F)c([N+](=O)[O-])c2)c2ccccc21 (centres undefined) | 31.5 | 29.1 µM [rising, single point] | 29.1 µM [rising, single point]
39 | CC(=Nc1ccc(C)cc1C)c1sc2ccccc2c1O | -40.1 | 29.1 µM [falling, single point] | 23.1 µM [falling, single point]
40 | COc1ccc(/C=N/NC(=O)CC(=O)NCc2cccnc2)cc1[N+](=O)[O-] | -18.2 | – | 6.51 µM [rising, single point]

Row | Structure (SMILES) | cell number change [%] | AC50 [1] | AC50 [2]
41 | Cc1oc(-c2ccccc2Cl)nc1CSCC(=O)NC1CCCC1 | 40.8 | 20.6 µM [rising, single point] | 29.1 µM [rising, single point]
42 | Cc1ccccc1CNC(=O)C1CCC(=O)N(CC2CCCCC2)C1 (centres undefined) | 17.3 | – | –
43 | CCOC(=O)C(=O)Nc1cccc(C(=O)OCC)c1 | 1.25 | – | –
44 | CCOC(=O)C1C(CC)NC(=S)NC1(C)O (centres undefined) | 14.6 | 6.51 µM [falling, single point] | –
45 | COc1cc(-c2[nH]nc3c2C(c2ccco2)C(C#N)=C(N)O3)cc(OC)c1OC (centres undefined) | 3.84 | – | 29.1 µM [falling, single point]
46 | Cc1ccc(NC(=O)NN2CCN(C)CC2)cc1C | 12.3 | – | 6.51 µM [rising, single point]
47 | COC(=O)C(Cc1ccc(O)cc1)NC(=O)C1CCN(S(=O)(=O)c2ccc(C)cc2)CC1 (centres undefined) | 8.56 | – | 29.1 µM [rising, single point]
48 | O=C(NCc1cccnc1)C(=O)Nc1nc(C23CC4CC(CC(C4)C2)C3)cs1 | -28 | – | 9.2 µM [falling, partial curve]
49 | OCCN(Cc1ccccc1)Cc1ccc(Cl)cc1 | -38.8 | 18.4 µM [falling, single point] | 0.82 µM [rising, full curve]
50 | Cc1ccc(NC(=O)c2ccc(NCCCN3CCOCC3)c([N+](=O)[O-])c2)cc1Cl | 19.2 | – | 0.517 µM [rising, full curve, poor fit]
51 | COc1ccc(-c2nc(NC(=O)c3cc(C(C)(C)C)nn3C)sc2C)cc1 | -30 | 0.164 µM [falling, full curve] | 0.206 µM [falling, full curve]
52 | Cc1ccccc1NS(=O)(=O)c1ccc(C(=O)N2CCCCCCC2)cc1 | – | – | 1.46 µM [rising, full curve]
53 | C=CCOc1ccc(Br)cc1CNC(C)(C)C | -4.78 | – | –
54 | CCN(C(=O)[C@@H]1CCCN1C(=O)c1cccs1)c1nc2cc(Cl)ccc2s1 | 3.34 | – | 1.46 µM [rising, single point]
55 | O=c1cc(CN2CCN(Cc3ccccc3)CC2)c2cc(O)ccc2o1 | 13.5 | – | 29.1 µM [rising, single point]
56 | COc1cc(C)ccc1OCC(=O)Nc1ccc2c(c1)OCO2 | -13.4 | 4.61 µM [rising, single point] | 4.61 µM [rising, single point]
57 | Cc1ccc(Nc2nc3nonc3[nH]c2=O)cc1 | -20.2 | 6.51 µM [falling, single point] | 0.651 µM [falling, full curve, poor fit]
58 | CCOC(=O)C1CCCN(C(=O)c2ccccc2Oc2ccccc2)C1 (centres undefined) | 0.503 | – | –

Some of the entries so far, as comma-separated lines:
Row,Structure (SMILES),cell number change [%],AC50 [1],AC50 [2]
45,COc1cc(-c2[nH]nc3c2C(c2ccco2)C(C#N)=C(N)O3)cc(OC)c1OC (centres undefined),3.84,–,"29.1 µM [falling, single point]"
46,Cc1ccc(NC(=O)NN2CCN(C)CC2)cc1C,12.3,–,"6.51 µM [rising, single point]"
47,COC(=O)C(Cc1ccc(O)cc1)NC(=O)C1CCN(S(=O)(=O)c2ccc(C)cc2)CC1 (centres undefined),8.56,–,"29.1 µM [rising, single point]"
48,O=C(NCc1cccnc1)C(=O)Nc1nc(C23CC4CC(CC(C4)C2)C3)cs1,-28,–,"9.2 µM [falling, partial curve]"
